Values from PubChem BioAssay AID1671195 (Yale University, 2021)
Assay: 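Knockdowns that increase or decrease uptake of fluorescent LDL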 (primary screen). Cells: human Huh7 hepatoma cells. Reagent: siRNA pool against human genes, 18 nM. Time to read-out: about 2 to 2.5 days of knockdown, then 8 h LDL uptake. Challenge: DiI-labelled LDL at 30 µg/ml for 8 h, in lipoprotein-deficient serum medium. Detection: 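Fluorescent LDL signal imaged in cells, scaled to the plate median, robust z-score for each replicate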. Scale: robust z-score: higher = more LDL uptake after knockdown. Rule for the call: 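Active when two or more replicates show a robust z-score above 2 or below -2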.
The deposit covers about 22,000 reagents; shown is a part drawn at random. In the full data, about 1,510 (6.9%) are marked active. 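Active includes knockdowns raising or lowering LDL uptake; positive z-scores mean more uptake, negative mean less.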 Entries without a mark were called inactive. Reagents against one gene are numbered here. Reagent sequences are not shown.

Knock-down of MAP4K2 came out at: robust z-score, replicate 1 = 0.137; robust z-score, replicate 2 = -1.26; robust z-score, replicate 3 = -1.62. Knock-down of ADARB1 gave: robust z-score, replicate 1 = 0.178; robust z-score, replicate 2 = 0.901; robust z-score, replicate 3 = 0.703. Against KCNB2 the deposit lists robust z-score, replicate 1 = 0.977; robust z-score, replicate 2 = 1; robust z-score, replicate 3 = 0.974. With knock-down of PARD6A the results were robust z-score, replicate 1 = 0.849; robust z-score, replicate 2 = -0.182; robust z-score, replicate 3 = 1.26. For LOC440755 (retired record), the entry reads robust z-score, replicate 1 = -4.33; robust z-score, replicate 2 = 0.908; robust z-score, replicate 3 = 0.955. MRPL33 showed robust z-score, replicate 1 = 0.691; robust z-score, replicate 2 = 0.992; robust z-score, replicate 3 = 1.28.

2 entries from above, limited to “robust z-score, replicate 2”:
PARD6A = -0.182
LOC440755 (retired record) = 0.908

Further reagents:
GPR19 showed robust z-score, replicate 1 = -0.94; robust z-score, replicate 2 = -1.35; robust z-score, replicate 3 = -1.45. For CFAP74 #1, the entry reads robust z-score, replicate 1 = 0.278; robust z-score, replicate 2 = 0.158; robust z-score, replicate 3 = 0.505. For CFAP74 #2, the values are robust z-score, replicate 1 = -0.516; robust z-score, replicate 2 = -0.643; robust z-score, replicate 3 = -0.837. Against POLR3H the deposit lists robust z-score, replicate 1 = 0.914 (active); robust z-score, replicate 2 = 2.35; robust z-score, replicate 3 = 2.75. For CTDSPL2 the deposit lists robust z-score, replicate 1 = 0.0952; robust z-score, replicate 2 = 0.752; robust z-score, replicate 3 = 1. ZNF878 scored robust z-score, replicate 1 = 0.462; robust z-score, replicate 2 = 0.528; robust z-score, replicate 3 = 0.764.
